# In publication PMC11392529:
# Amino acid sequences for entries named in this document (tags omitted). Residues count along the entry.
# UniProt P52480: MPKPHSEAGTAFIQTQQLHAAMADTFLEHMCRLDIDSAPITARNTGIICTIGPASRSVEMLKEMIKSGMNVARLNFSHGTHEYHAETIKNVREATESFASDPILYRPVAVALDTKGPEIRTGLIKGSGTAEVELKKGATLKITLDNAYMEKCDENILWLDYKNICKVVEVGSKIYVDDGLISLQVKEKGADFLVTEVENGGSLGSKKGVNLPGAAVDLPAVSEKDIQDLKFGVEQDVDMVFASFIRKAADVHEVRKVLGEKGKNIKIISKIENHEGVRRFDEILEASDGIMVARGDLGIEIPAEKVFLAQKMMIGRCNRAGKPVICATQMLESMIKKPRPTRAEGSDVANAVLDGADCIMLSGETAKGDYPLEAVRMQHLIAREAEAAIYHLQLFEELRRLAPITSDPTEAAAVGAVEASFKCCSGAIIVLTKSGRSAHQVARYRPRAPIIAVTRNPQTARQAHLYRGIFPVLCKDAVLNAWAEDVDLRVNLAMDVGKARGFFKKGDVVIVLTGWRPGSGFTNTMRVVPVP
# UniProt P01108: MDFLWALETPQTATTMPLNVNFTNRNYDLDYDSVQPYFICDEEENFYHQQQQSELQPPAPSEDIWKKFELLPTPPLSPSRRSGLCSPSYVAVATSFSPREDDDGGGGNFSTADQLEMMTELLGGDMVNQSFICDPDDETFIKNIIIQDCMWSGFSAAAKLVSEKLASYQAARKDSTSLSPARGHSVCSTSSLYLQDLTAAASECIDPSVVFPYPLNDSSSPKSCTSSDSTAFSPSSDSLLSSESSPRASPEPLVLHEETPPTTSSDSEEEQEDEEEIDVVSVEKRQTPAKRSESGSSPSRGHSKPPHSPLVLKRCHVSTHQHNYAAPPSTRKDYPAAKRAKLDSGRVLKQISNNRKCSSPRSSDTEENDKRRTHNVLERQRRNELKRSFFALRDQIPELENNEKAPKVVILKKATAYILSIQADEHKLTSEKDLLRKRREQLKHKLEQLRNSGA
# UniProt P25799, residues 1-431: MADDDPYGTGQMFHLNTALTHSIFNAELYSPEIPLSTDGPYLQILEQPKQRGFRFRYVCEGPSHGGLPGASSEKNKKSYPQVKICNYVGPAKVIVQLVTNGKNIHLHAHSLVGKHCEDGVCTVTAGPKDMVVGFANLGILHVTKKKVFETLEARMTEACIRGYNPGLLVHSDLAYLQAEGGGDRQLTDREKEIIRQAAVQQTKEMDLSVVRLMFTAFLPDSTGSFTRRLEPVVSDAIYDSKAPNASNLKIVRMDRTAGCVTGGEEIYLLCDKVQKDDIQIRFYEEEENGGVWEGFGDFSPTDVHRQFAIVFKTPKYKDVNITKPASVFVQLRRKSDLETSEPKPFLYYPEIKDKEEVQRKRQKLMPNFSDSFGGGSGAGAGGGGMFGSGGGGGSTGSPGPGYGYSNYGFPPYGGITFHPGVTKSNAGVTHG
# UniProt Q04207: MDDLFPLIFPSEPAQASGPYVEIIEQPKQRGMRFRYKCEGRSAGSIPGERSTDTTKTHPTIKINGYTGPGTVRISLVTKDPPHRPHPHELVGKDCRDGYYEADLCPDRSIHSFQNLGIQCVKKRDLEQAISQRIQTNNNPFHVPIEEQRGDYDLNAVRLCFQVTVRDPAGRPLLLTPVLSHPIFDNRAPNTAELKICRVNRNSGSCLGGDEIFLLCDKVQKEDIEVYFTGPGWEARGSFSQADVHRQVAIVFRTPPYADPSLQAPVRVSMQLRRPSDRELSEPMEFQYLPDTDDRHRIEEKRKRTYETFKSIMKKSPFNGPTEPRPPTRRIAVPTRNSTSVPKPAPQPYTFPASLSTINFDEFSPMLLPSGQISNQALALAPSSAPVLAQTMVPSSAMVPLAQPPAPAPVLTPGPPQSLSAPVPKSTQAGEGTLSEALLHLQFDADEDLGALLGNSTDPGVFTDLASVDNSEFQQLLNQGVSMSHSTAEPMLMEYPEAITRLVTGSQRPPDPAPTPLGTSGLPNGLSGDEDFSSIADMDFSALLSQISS
# Results are given in words; binding and its absence hold for the method and conditions named. Binding seen in cells or lysates may run through a third protein. Some binding calls cover weakened binding; strength is not graded here.
# Molecular target: Pyruvate kinase M2 (PKM2), endogenous in primary astrocytes (mouse (endogenous in primary astrocytes)) (UniProt P52480)
# Test: co-IP; endogenous proteins in primary astrocyte lysate; antibody-conjugated Dynabeads M-270 Epoxy, 4 °C for 1 hr, western blotting; also in astrocytes overexpressing TRIM21 (Figure 6E)
row,binding,Substance
1,binds,"c-myc, endogenous in primary astrocytes (from UniProt P01108 1-454)"
2,binds,"p50 subunit of NF-κB, endogenous in primary astrocytes (from UniProt P25799 1-431)"
3,binds,"p65 subunit of NF-κB, endogenous in primary astrocytes (from UniProt Q04207 1-549)"
